These are yes or no findings as the source states them, for the method shown. In cells and extracts the contact can be indirect.
Target: scrambled control peptide
Assay: pull-down; only the target purified

Chains of the proteins cited; added tags and fusions are not shown.
UniProt P15682: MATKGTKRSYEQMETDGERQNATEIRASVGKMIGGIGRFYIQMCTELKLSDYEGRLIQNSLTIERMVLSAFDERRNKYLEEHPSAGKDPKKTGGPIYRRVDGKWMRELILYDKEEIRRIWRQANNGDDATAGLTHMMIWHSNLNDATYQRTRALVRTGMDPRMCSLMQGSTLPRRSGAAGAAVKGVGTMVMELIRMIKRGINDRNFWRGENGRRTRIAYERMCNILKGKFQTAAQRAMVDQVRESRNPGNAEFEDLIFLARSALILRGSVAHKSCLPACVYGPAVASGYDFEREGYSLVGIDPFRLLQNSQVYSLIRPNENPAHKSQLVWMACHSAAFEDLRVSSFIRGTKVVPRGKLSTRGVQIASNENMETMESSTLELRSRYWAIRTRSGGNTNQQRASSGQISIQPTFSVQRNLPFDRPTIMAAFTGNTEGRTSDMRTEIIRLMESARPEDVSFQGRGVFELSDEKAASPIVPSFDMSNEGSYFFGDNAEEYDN

Substance: nucleoprotein (NP) of influenza A/WSN/33 virus in infected cell lysates (from UniProt P15682 1-498)
- binding: no binding
